Data taken from patent US8512707B2, “Methods of treating drug-resistant cancers” (Seattle Genetics, Inc., priority 2006, dated 2013).
Some results were stated once for a whole list of compounds, not compound by compound. At least one structure is not confirmed: it was looked up by name or label, or the drawing left a doubt.

The compounds below were run on parental and drug resistant cell line pairs (assay: Drug sensitivity across the panel of parental/drug resistant cell line pairs). Conditions: statement over all cell line pairs of Table 3.
Format: cell-based
Description: The following parental and drug resistant cell lines were used to determine their MMAF-drug sensitivity.
The activity of various drugs against parental and drug resistant subline pairs was tested. The pairs of cell lines tested were A2780 and A2780adr; MES-SA and MES-SA/Dx5; NCI-H69 and NCI-H69/LX-4; and HL60 and HL60/RV. Cell lines were plated and incubated 24 hr. Culture medium containing serial dilutions of the drugs doxorubicin, vincristine, cisplatin, dolastatin 10 or MMAF were then added. The cultures were incubated to 96 hr and labeled with resazurin. Sensitivity to each drug was measured by determining the IC50 of the parent and drug resistant subline pair. The drug resistance (as “fold resistance”) was determined from the IC50 value of the resistant cell line divided by the IC50 value of the parental line. Mean fold resistance is the average across the cell line panel.
With `COc1cccc2c1C(=O)c1c(O)c3c(c(O)c1C2=O)C[C@@](O)(C(=O)CO)C[C@@H]3O[C@H]1C[C@H](N)[C@H](O)[C@H](C)O1` [Doxorubicin] the “difference in sensitivity of parent and resistant line” value (from here on “difference in sensitivity”) was “at least 24 fold”.
`CC[C@H](C)[C@@H]([C@@H](CC(=O)N1CCC[C@H]1[C@H](OC)[C@@H](C)C(=O)N[C@@H](Cc1ccccc1)c1nccs1)OC)N(C)C(=O)[C@@H](NC(=O)[C@H](C(C)C)N(C)C)C(C)C` [Dolastatin 10] was tested, and the “difference in sensitivity” value was “at least 24 fold”.
With `CC[C@]1(O)C[C@H]2CN(CCc3c([nH]c4ccccc34)[C@@](C(=O)OC)(c3cc4c(cc3OC)N(C=O)[C@H]3[C@@](O)(C(=O)OC)[C@H](OC(C)=O)[C@]5(CC)C=CCN6CC[C@]43[C@@H]65)C2)C1` [Vincristine] the “difference in sensitivity” value was “at least 24 fold”.
